Patent US20060135569A1, “Use of benzisoselenazolone compounds against ischemic myocardial damage” (priority 2002, published 2006)

System: acute myocardial ischemia in anesthetized dogs
Test: Acute myocardial ischemia and infarction in anesthetized dogs
Type: in vivo, dog
Conditions: Dilthiazem 5 mg/kg, IMM-004 30 mg/kg; n = 5, X ± SD
Experimental: Dogs were divided into three groups: 1, vehicle control group, PEG 1 ml/kg, n=5; 2, dilthiazem group, 5 mg/kg, n=5; 3, IMM-004 group, 30 mg/kg, n=5. The tested drugs were prepared in distilled water at volume of 1 ml/kg. The tested items were administrated via duodenum by animals.

Structure (SMILES): COc1ccc([C@@H]2Sc3ccccc3N(CCN(C)C)C(=O)[C@@H]2OC(C)=O)cc1 [Dilthiazem, reference compound]
- Heart area mm^2: 15185.8 ± 876.8 mm^2
- Ventricular area mm^2: 5309.6 ± 427.4 mm^2

Structure (SMILES): O=c1c2cc(Cl)ccc2[se]n1-c1ccccn1 [IMM-004, 5-chloro-2-(2-pyridyl)-1,2-benz-isoselenazol-3(2H)-one]
- Heart area mm^2: 17098.9 ± 3224.4 mm^2
- Ventricular area mm^2: 5274.3 ± 832.6 mm^2
